Reference: paper PMC9073322
Where a chain is given by its changes, count along the chain named. These are yes or no findings as the source states them, for the method shown. A result given as binding can be weak or reduced; the word gives no strength. Tags and fused reporters may be left off the sequences shown.

Key:
[1] = target: T1, d14^seto fused to GAL4-BD (Arabidopsis thaliana) (UniProt Q9SQR3); test: two-hybrid; D14 or d14^seto fused to GAL4-BD, SMXL proteins and domains fused to GAL4-AD; serial dilutions of yeast on selective medium (-His low stringency, -His -Ade higher stringency) supplemented with 2 μM GR24^5DS
T1 sequence: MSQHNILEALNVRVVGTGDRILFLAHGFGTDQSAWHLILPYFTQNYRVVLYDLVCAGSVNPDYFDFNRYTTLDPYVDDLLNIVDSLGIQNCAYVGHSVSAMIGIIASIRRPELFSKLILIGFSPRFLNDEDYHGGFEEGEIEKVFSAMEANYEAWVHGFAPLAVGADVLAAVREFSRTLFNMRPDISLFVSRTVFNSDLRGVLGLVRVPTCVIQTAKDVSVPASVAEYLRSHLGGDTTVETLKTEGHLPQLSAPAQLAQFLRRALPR

[2] = target: T2, DWARF14 (D14) fused to GAL4-BD (Arabidopsis thaliana) (UniProt Q9SQR3); test: as above
T2 sequence: T1 sequence with L169P

[3] = target: T1, d14^seto fused to GAL4-BD (Arabidopsis thaliana); test: two-hybrid; as a1 but selective medium supplemented with acetone (control), no GR24^5DS

| binding [1] | binding [2] | binding [3] | Substance |
| --- | --- | --- | --- |
| binds | binds | binds | D1M domains of SMAX1 (SMAX1D1M) fused to GAL4-AD (Arabidopsis thaliana) (domain or fragment) |
|  | binds |  | D1M domains of SMXL7 (SMXL7D1M) fused to GAL4-AD (Arabidopsis thaliana) (domain or fragment) |
